Measured values taken from PubChem BioAssay AID540256 (National Center for Advancing Translational Sciences (NCATS), 2011).
Among all 300,000 compounds or so, about 3,700 (1.2%) were called active. The shares of active, inactive and inconclusive entries below differ from those in the screen. Calls follow the shape of the full dose curve; tested in HEK293 cells. Potencies beside an inconclusive call are fits to weak or partial responses and may not hold up.
Potency is read from the fitted curve at half-maximal effect.

Test: qHTS for Inhibitors of binding or entry into cells for Lassa Virus; also: nearly all actives have a fitted effect of over 50% in size
Settings: Lassa virus pseudotype entry inhibition, cell reporter; series mostly up to 37.9 µM
In the case of CC(C)Oc1ccc(C(=O)NC2CCCCC2)cc1, the Potency is reported as “inactive”.
In the case of O=C(c1cccc(S(=O)(=O)Nc2ccc(Br)cc2)c1)N1CCCC1, the Potency is reported as “inactive”.
In the case of CCOC(=O)Cc1cc(=O)n2[nH]c(-c3ccc(C)cc3)cc2n1, the Potency is reported as “inactive”.
With CC1=CC(C2CC(=O)N(c3ccccc3C)C2=O)CC2C(=O)N(c3ccccc3C)C(=O)C12 (stereo not given) the Potency was inconclusive: 7.08 µM [activator, partial curve, poor fit].
For CCN(CC)CCN(Cc1cc2cc3c(cc2[nH]c1=O)OCCO3)C(=S)NCC1CCCO1 (stereo not given), the Potency was “inactive”.
In the case of COc1ccc(-c2cc(C(=O)OCC(=O)NC(C)C)c3ccccc3n2)cc1, the Potency is reported as inconclusive: 2.51 µM [inhibitor, full curve].
In the case of O=S(=O)(Nc1cccc(-c2ccc(N3CCCC3)nn2)c1)c1cc(F)ccc1F, the Potency is reported as inconclusive: 35.5 µM [activator, single point].
In the case of CCOc1ccc(-n2nnnc2SCC(=O)c2ccccc2)cc1, the Potency is reported as inconclusive: 25.1 µM [inhibitor, single point].
For Cc1cccc(C)c1NC(=O)CNC(=O)C(C)NC(C)c1ccccc1Br (stereo not given), the Potency was “inactive”.
In the case of Cc1ccccc1-n1c(SCc2cc(=O)n3ccccc3n2)nc2[nH]ncc2c1=O, the Potency is reported as “inactive”.
For Cc1ccc(OCC(O)Cn2c(=N)n(Cc3ccccc3)c3ccccc32)cc1 (stereo not given), the Potency was inconclusive: 22.4 µM [inhibitor, single point].
With CCOC(=O)C1CN(S(=O)(=O)c2cccc(C(F)(F)F)c2)c2cc(CC(=O)OC)ccc2O1 (stereo not given) the Potency was “inactive”.
For Cc1cc(-n2c(C)cc(C(=S)N3CCOCC3)c2C)ccc1Br, the Potency was “inactive”.
With Nc1ccccc1-c1nc2ccccc2[nH]1 the Potency was inconclusive: 6.51 µM [activator, single point].
For CCOC(=O)c1c(C)oc2nc(C)nc(N3CCN(c4cccc(C)c4C)CC3)c12, the Potency was inconclusive: 3.55 µM [inhibitor, full curve, poor fit].
In the case of COc1ccc(C(CNC(=O)c2cccc(NS(=O)(=O)c3ccc(Br)cc3)c2)N(C)C)cc1 (stereo not given), the Potency is reported as inconclusive: 15.8 µM [inhibitor, single point].
For CN(c1cccc(NC(=O)CN(c2cccc(Cl)c2)S(=O)(=O)c2ccccc2)c1)S(C)(=O)=O, the Potency was inconclusive: 8.91 µM [inhibitor, partial curve, poor fit].
In the case of COc1ccc(N2CCN(S(=O)(=O)CCNC(=O)CCCc3ccccc3)CC2)cc1, the Potency is reported as “inactive”.
For Cc1cc(Nc2cccc(C(F)(F)F)c2)nc2ccc(NC(=O)c3cccnc3)cc12, the Potency was inconclusive: 35.5 µM [inhibitor, single point].
For COc1ccc(C(CNC(=O)c2oc3ccc(OC)cc3c2C)N2CCCC2)cc1 (stereo not given), the Potency was inconclusive: 5.62 µM [inhibitor, partial curve].
